Laboratory results reported in PubChem BioAssay AID743255 (National Center for Advancing Translational Sciences (NCATS), 2014).
The whole screen tested about 390,000 compounds, of which about 910 (0.23%) were called active. The source calls these results inconclusive, neither active nor inactive. Calls come from the whole dose curve; as a rule, active = well fitted inhibition curve with a large enough effect; inconclusive = small, poorly fitted or top-dose-only effect; inactive = no such curve, though single readings can be large or run the other way.
Note: nearly all actives have a fitted effect of over 60% in size.
Potency is the fitted concentration of half-maximal effect.

Chains of the proteins cited; added tags and fusions are not shown.
UniProt O94782, whole entry, looked up: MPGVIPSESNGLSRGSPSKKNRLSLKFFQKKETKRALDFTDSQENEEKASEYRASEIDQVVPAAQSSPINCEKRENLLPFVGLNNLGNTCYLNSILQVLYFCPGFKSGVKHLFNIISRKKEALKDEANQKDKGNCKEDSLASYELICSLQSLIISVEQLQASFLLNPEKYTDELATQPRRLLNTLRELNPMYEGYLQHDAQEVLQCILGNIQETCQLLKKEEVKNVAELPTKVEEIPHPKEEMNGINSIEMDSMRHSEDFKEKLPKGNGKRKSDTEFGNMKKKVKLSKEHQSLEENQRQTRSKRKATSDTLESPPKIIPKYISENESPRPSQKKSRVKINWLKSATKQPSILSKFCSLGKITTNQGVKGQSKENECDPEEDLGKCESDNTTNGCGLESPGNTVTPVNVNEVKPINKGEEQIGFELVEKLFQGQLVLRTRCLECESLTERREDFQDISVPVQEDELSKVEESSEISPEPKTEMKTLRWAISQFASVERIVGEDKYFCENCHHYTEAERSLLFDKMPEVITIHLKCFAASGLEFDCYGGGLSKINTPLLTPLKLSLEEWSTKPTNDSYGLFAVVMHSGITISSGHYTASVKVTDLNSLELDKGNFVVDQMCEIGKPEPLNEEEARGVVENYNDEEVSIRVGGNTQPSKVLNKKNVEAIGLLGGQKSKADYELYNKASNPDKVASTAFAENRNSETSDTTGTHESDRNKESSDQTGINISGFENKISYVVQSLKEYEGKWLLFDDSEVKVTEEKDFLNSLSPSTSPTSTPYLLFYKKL

What follows are compounds tested against Ubiquitin carboxyl-terminal hydrolase 1 (Homo sapiens) (UniProt O94782) (assay: Inhibitors of USP1/UAF1: Primary Screen). Settings: recombinant USP1/UAF1, Ub-Rhodamine cleavage fluorescence.
Source text: Deubiquitinating enzymes (DUBs) are a class of enzymes that can cleave isopeptide bond formed between the C-terminal carboxylate of ubiquitin and a lysine side-chain amino group on the target protein. Among them, ubiquitin specific proteases (USPs) constitute the largest DUB family. Human USPs are emerging as promising targets for pharmacological intervention because of their connection to a number of human diseases, including prostate, colon and breast cancer (1, 2), pediatric acute lymphoblastic leukemia (3), and familial cylindromatosis (4). The advantage of inhibiting USPs lies in the potential specificity of therapeutic intervention that can lead to better efficacy and reduce nonspecific side effects. In a collaboration between the University of Delaware and the NIH Chemical Genomics Center, a high-throughput screen assay was developed to screen for USP1/UAF1 inhibitors. This miniaturized assay has a fluorescent read-out and is used to screen the NIH Molecular Libraries Small Molecule Repository (MLSMR) in order to identify a small molecule that inhibits USP1. NIH Chemical Genomics Center [NCGC] NIH Molecular Libraries Probe Centers Network [MLPCN] MLPCN Grant: DA030552 Assay Submitter (PI): Zhihao Zhuang, University of Delaware 1. Priolo, C., et al. (2006) The isopeptidase USP2a protects human prostate cancer from apoptosis. Cancer Res 66, 8625-8632 2. Popov, N., et al. (2007) The ubiquitin-specific protease USP28 is required for MYC stability. Nat Cell Biol 9, 765-774 3. De Pitta, C., et al. (2005) A leukemia-enriched cDNA microarray platform identifies new transcripts with relevance to the biology of pediatric acute lymphoblastic leukemia. Haematologica 90, 890-898 4. Kovalenko, A., et al. (2003) The tumour suppressor CYLD negatively regulates NF-kappaB signalling by deubiquitination. Nature 424, 801-805
3 microliters of reagents (buffer in columns 3 and 4 as negative control and 1nM USP1/UAF1 complex in columns 1, 2, and 5-48) are dispensed into Greiner black solid bottom 1536-well assay plates. Compounds are then transferred via Kalypsys pin tool equipped with 1536-pin array (10nl slotted pins, V&P Scientific, San Diego, CA). Following an incubation step of 15 min at room temperature, 1ul of Ub-Rho substrate (150nM final concentration) is added to initiate the reaction. The plates are immediately centrifuged at 1000 rpm for 15 seconds, and subsequently transferred to a ViewLux high-throughput CCD imager (PerkinElmer) wherein kinetic measurements of fluorescence are acquired using 480 nm excitation/540 nm emission filter set (6 reads every 60 seconds, see Table 1). All reagents are diluted in an assay buffer consisting of 50mM HEPES (pH 7.8), 0.5mM EDTA, 0.1 mg/ml BSA, 1mM TCEP, and 0.01% Tween-20.
`O=[N+]([O-])c1cc([N+](=O)[O-])c(Nc2ccccn2)c([N+](=O)[O-])c1` was tested, and the Potency was inconclusive: 31.6 µM. With `CCOC(=O)c1ccc(NP(C)(=O)Oc2ccc(Cl)cc2)cc1` (stereo unspecified) the Potency was inconclusive: 39.8 µM. For `CP(=O)(Nc1ccc(SC(F)(F)F)cc1)Oc1ccc(F)cc1` (stereo unspecified), the Potency was inconclusive: 35.5 µM. In the case of `Cc1c([N+](=O)[O-])cc([N+](=O)[O-])c(Br)c1[N+](=O)[O-]`, the Potency is reported as inconclusive: 7.94 µM. `COc1ccc(OP(C)(=O)Nc2ccc(SC(F)(F)F)cc2)cc1` (stereo unspecified) was tested, and the Potency was inconclusive: 14.1 µM. In the case of `CP(=O)(Nc1ccc(SC(F)(F)F)cc1)Oc1ccccc1` (stereo unspecified), the Potency is reported as inconclusive: 22.4 µM. In the case of `CCCOc1ccc(NP(C)(=O)Oc2ccc(Cl)cc2)cc1` (stereo unspecified), the Potency is reported as inconclusive: 8.91 µM. `Cc1cc(C)cc(OP(C)(=O)Nc2ccc(SC(F)(F)F)cc2)c1` (stereo unspecified) was tested, and the Potency was inconclusive: 3.55 µM. For `CP(=O)(Nc1ccc(SC(F)(F)F)cc1)Oc1ccc(Cl)cc1` (stereo unspecified), the Potency was inconclusive: 25.1 µM. With `Cc1cccc(C)c1OP(C)(=O)Nc1ccc(SC(F)(F)F)cc1` (stereo unspecified) the Potency was inconclusive: 44.7 µM. For `CC(C)(C)c1ccc(OP(C)(=O)Nc2ccc(SC(F)(F)F)cc2)cc1` (stereo unspecified), the Potency was inconclusive: 39.8 µM.
